Experimental data published in publication PMC3510053.
Results are given in words; binding and its absence hold for the method and conditions named. Some binding calls cover weakened binding; strength is not graded here. Where a sequence is shown, tags or fusion partners need not be part of it.

Sequences of proteins named here, by UniProt entry; tags and fusion partners are left off. Residues count along the entry.
MBP-SPT5N (SPT5-N, aa 112–393) (Q9V460, residues 112-393): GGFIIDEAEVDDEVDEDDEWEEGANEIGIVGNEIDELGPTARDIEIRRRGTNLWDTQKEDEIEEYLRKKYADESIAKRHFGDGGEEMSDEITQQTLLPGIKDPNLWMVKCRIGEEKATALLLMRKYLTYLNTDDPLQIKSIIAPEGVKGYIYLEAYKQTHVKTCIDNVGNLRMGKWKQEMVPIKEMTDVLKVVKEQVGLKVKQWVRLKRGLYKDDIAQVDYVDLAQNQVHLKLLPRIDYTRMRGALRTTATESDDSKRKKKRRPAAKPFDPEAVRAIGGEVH
MBP-SPT5M (SPT5 M, aa 389–733) (Q9V460, residues 389-733): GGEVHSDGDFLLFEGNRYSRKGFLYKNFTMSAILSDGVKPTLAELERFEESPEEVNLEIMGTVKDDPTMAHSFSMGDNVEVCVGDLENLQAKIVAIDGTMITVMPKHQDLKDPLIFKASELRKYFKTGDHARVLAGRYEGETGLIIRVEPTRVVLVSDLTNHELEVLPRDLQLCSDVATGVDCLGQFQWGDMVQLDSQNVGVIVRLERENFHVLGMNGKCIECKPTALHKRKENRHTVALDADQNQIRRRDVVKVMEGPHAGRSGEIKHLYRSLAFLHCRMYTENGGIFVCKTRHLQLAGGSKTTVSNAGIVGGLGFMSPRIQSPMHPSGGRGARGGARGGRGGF
MBP-SPT5C (SPT5 C, aa 732–1054) (Q9V460, residues 732-1054): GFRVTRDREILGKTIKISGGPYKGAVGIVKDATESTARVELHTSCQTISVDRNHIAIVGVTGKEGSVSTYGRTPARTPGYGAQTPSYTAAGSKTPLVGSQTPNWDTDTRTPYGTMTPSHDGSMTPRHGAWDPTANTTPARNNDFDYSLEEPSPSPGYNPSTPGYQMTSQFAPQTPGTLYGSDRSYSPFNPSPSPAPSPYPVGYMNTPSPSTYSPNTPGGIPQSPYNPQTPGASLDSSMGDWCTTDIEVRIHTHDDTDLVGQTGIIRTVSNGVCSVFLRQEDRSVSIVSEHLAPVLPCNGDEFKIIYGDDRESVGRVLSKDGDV

Legend:
Assay in all cases: pull-down; MBP-SPT5 fragments bound to amylose beads, equivalent molar concentrations, incubated with GST proteins; three washes with 150 mM NaCl, 0.1% NP40, 20 mM Tris for 10 min at 4°C; eluted by boiling in SDS-loading buffer; anti-GST Western; both purified
[1] = target: MBP-SPT5N (SPT5-N, aa 112–393) (Drosophila) (UniProt Q9V460)
[2] = target: MBP-SPT5M (SPT5 M, aa 389–733) (Drosophila) (UniProt Q9V460)
[3] = target: MBP-SPT5C (SPT5 C, aa 732–1054) (Drosophila) (UniProt Q9V460)

B1: GST-MSL1 PEHE domain (aa 751–1039) (domain or fragment, UniProt P50535 751-1039)
chain: TPTPGSTPQHAVTSSMDQEISAAKSKSKAAEQIATPLTPQSNSSVSSTTSTIRKTLNNCSPHTYSKATARSGKLQSRFRTATFPYSTRTWEDQEFHCDNEFFLEEADELLADNPSLEIPKWRDVPVPPSSDKIDTELLSDATFERRHQKYVKDEVDRKCRDARYMKEQIRLEQLRMRRNQDEVLVALDPLRASTFYPLPEDIEAIQFVNEVTVQAFGENVVNMEARDDFGVPWVDAIEAPTSIARSKALAEPVATLASKKIPTTAAEARHQENHSSYVFPKRRKRQKNR
binding [1]: binds
binding [2]: binds
binding [3]: no binding
